# Experimental data: PubChem BioAssay AID540352 (National Center for Advancing Translational Sciences (NCATS), 2011)
# The shares of active, inactive and inconclusive entries below differ from those in the screen. Potencies of inconclusive entries are doubtful fits and often do not repeat. The source made the active and inactive calls. Calls follow the shape of the dose curve; as a rule, active = well fitted inhibition curve with a large enough effect; inconclusive = small, poorly fitted or top-dose-only effect; inactive = no such curve, though single readings can be large or run the other way.
# Test: qHTS for Inhibitos of Bacillus subtilis Sfp phosphopantetheinyl transferase (PPTase): Chemistry Optimization Followup in B. Subtilis 168
# Settings: B. subtilis 168 growth, BacTiter-Glo luminescence, 5 h; series mostly up to 114 µM; activity change, negative = inhibition: at the top concentration
# Description: Phosphopantetheinyl transfer is a process essential to cellular viability and maintenance. Cell-permeable and stable compounds acting as PPTase inhibitors are anticipated to be antimicrobial agents in organisms with complimenting genotypes. […] This experiment evaluated a series of test compounds for antimicrobial activity with B. subtilis 168 (genotype: acpS+ and sfp-), a strain that contains a frameshift mutation in the sfp locus and thus requires a functional AcpS gene product for viability. [Mootz HD, 2001] This strain is expected to be sensitized to cell-permeable AcpS inhibitors, and insensitive to Sfp inhibitors. NIH Chemical Genomics Center [NCGC] NIH Molecular Libraries Probe Centers Network [MLPCN] MLPCN Grant: MH083266-01 Assay Submitter (PI): Michael Burkart, University of California, San Diego
# Innoculum preparation. Bacillus subtilis 168 is maintained on lysogeny broth (LB) solidified by the addition of 1.5% w/v agar. Single colonies were used to LB medium (2 mL) and shaken overnight at 30 masculineC. In the morning, this culture (100 ul) was used to seed a fresh LB medium (10 mL) and was shaken at 30 masculineC until the culture OD600 reached 0.5. This culture was diluted 1:100 in fresh LB medium to provide the inoculum below. Bacterial susceptibility. LB medium (2 uL) is dispensed into wells of a sterile white 1536-well plate. Test compounds (23 nL) prepared as serial dilutions in DMSO are added to the plate by pintool transfer. Innoculum (2 uL) is added, the plates are covered with a vented Kalypsys assay lid and incubated at 30 masculineC. After 5 h, Bac-Titer Glo (4 uL; Promega Corp, Madison, WI) is added to the plates. They are incubated 10 minutes at room temperature and then the luminescence detected in a ViewLux multimodal plate reader.
Structure (SMILES),Potency,"activity change, negative = inhibition"
Cc1ccnc(NC(=S)N2CCCc3ccc(C(F)(F)F)cc32)c1,"inconclusive: 37.3 µM [inhibitor, partial curve, poor fit]",–
Cc1cncc(NC(=S)N2CCN(c3cccc(C(F)(F)F)c3)CC2)c1,–,inactive: -23.5%
CC(=O)c1ccc(N2CCN(C(=S)Nc3cc(C)ccn3)CC2)cc1,"inconclusive: 52.7 µM [inhibitor, partial curve]",–
COc1cccc(NC(=S)N2CCN(c3cccc(C(F)(F)F)n3)CC2)n1,"inconclusive: 11.8 µM [inhibitor, partial curve, poor fit]",–
COc1cc(NC(=S)N2CCN(c3cccc(C(F)(F)F)c3)CC2)nc2ccccc12,"inconclusive: 4.18 µM [inhibitor, partial curve]",–
COc1ccnc(NC(=S)N2CCN(c3ncc(C(F)(F)F)cc3Cl)CC2)c1,active: 14.8 µM,–
Cc1cc(C)nc(NC(=S)N2CCN(c3ncnc4sccc34)CC2)c1,"inconclusive: 29.6 µM [inhibitor, partial curve]",–
Cc1cccc(NC(=S)N2CCN(c3cccc(C(F)(F)F)c3)CC2)c1,–,inactive: -17.9%
Cc1ccnc(NC(=S)N2CCN(c3ccc(Br)cc3)CC2)c1,active: 23.5 µM,–
FC(F)(F)c1cccc(N2CCN(C(=S)Nc3cccnc3)CC2)c1,"inconclusive: 59.1 µM [inhibitor, partial curve]",–
Cc1cc(C)nc(NC(=S)N2CCN(c3cc(C(F)(F)F)nc4ccc(C(F)(F)F)cc34)CC2)c1,"inconclusive: 8.35 µM [inhibitor, full curve]",–

# Already shown: an excerpt of the list.
Structure (SMILES),Potency,"activity change, negative = inhibition"
COc1cc(NC(=S)N2CCN(c3cccc(C(F)(F)F)c3)CC2)nc2ccccc12,"inconclusive: 4.18 µM [inhibitor, partial curve]",–
COc1ccnc(NC(=S)N2CCN(c3ncc(C(F)(F)F)cc3Cl)CC2)c1,active: 14.8 µM,–
